# According to paper PMC5996148:
# This is one part of the list.
# How the values were obtained:
# Test in all cases: protein microarray (ProtoArray v5.0), streptavidin-Alexa Fluor 647
# Details in all cases: 3'-biotin; 20 mM Tris (pH 7.5), 5 mM MgCl2, 100 mM KCl, 0.1% Tween-20, A/T-rich and random oligonucleotide blockers; temperature not stated; high values mean tight binding
# [1] = system: Nucleolar protein 11 (human)
# [2] = system: Nucleoporin Nup37 (human)
# Nucleoredoxin (human) = system: Nucleoredoxin (human)
# [3] = system: Nucleotide-binding protein 1 (human)
# OAS2 (human) = system: OAS2 (human)
# ODAM (human) = system: ODAM (human)
# ODF4 (human) = system: ODF4 (human)
# OGN (human) = system: OGN (human)
# OGT (human) = system: OGT (human)
# OPA1 (human) = system: OPA1 (human)
# OPA3 (human) = system: OPA3 (human)
# OR2G3 (human) = system: OR2G3 (human)
# OR4D6 (human) = system: OR4D6 (human)
# OR9G1 (human) = system: OR9G1 (human)
# ORM1 (human) = system: ORM1 (human)
# ORM2 (human) = system: ORM2 (human)
# ORMDL2 (human) = system: ORMDL2 (human)
# OSBPL1A (human) = system: OSBPL1A (human)
# OSBPL2 (human) = system: OSBPL2 (human)
# OSBPL3 (human) = system: OSBPL3 (human)
sequence,measurement,setting,value
GGGAGGCTGAGGCAGG [G4-1 biotinylated (PQS2)],binding signal,[1],-0.302 z-score
same,binding signal,[2],-0.308 z-score
same,binding signal,Nucleoredoxin (human),-0.309 z-score
same,binding signal,[3],-0.32 z-score
same,binding signal,OAS2 (human),-0.279 z-score
same,binding signal,ODAM (human),-0.343 z-score
same,binding signal,ODF4 (human),-0.316 z-score
same,binding signal,OGN (human),-0.339 z-score
same,binding signal,OGT (human),-0.368 z-score
same,binding signal,OPA1 (human),-0.285 z-score
same,binding signal,OPA3 (human),-0.343 z-score
same,binding signal,OR2G3 (human),-0.235 z-score
same,binding signal,OR4D6 (human),-0.314 z-score
same,binding signal,OR9G1 (human),-0.303 z-score
same,binding signal,ORM1 (human),-0.347 z-score
same,binding signal,ORM2 (human),-0.341 z-score
same,binding signal,ORMDL2 (human),-0.317 z-score
same,binding signal,OSBPL1A (human),-0.336 z-score
same,binding signal,OSBPL2 (human),-0.313 z-score
same,binding signal,OSBPL3 (human),-0.268 z-score

# Exported with bars between the fields: part of the list above
sequence | measurement | setting | value
GGGAGGCTGAGGCAGG [G4-1 biotinylated (PQS2)] | binding signal | OPA1 (human) | -0.285 z-score
same | binding signal | OPA3 (human) | -0.343 z-score
